Results published in the supplement of paper PMC10849652.
Some of the results follow.

The chains behind the UniProt entries cited, without tags or fusion partners. Where a name states a change or a piece, a line headed by the entry shows the natural chain unless it says otherwise.
UniProt O14545: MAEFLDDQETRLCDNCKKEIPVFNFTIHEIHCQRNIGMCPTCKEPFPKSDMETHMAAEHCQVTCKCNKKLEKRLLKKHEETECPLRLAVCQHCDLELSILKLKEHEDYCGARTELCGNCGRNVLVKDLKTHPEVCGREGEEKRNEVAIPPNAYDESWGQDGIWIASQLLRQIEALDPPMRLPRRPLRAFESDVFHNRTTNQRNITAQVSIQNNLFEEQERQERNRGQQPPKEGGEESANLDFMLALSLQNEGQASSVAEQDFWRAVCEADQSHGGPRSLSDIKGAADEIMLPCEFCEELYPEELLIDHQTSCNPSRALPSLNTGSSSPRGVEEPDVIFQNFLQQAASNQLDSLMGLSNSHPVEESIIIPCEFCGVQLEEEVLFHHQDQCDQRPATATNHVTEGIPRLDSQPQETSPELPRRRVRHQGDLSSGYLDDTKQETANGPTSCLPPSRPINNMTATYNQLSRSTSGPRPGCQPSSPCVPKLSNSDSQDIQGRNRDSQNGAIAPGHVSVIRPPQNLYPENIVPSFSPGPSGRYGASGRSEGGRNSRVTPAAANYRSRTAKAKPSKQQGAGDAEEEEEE
UniProt Q96S44: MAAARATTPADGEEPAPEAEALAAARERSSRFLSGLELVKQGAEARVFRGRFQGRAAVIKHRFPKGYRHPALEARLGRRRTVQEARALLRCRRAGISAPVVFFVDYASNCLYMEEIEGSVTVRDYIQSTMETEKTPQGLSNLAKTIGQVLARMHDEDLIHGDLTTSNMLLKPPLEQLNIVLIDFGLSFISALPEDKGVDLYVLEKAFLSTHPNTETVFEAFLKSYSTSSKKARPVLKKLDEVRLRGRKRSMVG
UniProt Q969M1: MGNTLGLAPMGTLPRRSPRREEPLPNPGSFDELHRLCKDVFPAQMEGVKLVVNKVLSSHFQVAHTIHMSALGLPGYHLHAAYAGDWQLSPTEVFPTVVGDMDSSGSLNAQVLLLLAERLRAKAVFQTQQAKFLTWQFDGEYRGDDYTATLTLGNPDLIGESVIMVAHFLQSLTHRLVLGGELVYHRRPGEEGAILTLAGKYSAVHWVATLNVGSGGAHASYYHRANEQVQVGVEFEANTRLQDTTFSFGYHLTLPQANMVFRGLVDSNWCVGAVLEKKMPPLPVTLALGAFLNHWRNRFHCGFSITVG
UniProt P09493, whole entry, looked up: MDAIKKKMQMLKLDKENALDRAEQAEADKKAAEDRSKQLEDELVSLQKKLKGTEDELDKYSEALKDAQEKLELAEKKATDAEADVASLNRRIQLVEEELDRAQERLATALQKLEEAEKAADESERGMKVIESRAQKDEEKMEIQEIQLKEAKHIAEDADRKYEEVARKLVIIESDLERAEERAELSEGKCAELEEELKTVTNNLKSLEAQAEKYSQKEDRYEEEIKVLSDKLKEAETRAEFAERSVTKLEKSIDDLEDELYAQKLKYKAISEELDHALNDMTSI
UniProt Q9NXH8: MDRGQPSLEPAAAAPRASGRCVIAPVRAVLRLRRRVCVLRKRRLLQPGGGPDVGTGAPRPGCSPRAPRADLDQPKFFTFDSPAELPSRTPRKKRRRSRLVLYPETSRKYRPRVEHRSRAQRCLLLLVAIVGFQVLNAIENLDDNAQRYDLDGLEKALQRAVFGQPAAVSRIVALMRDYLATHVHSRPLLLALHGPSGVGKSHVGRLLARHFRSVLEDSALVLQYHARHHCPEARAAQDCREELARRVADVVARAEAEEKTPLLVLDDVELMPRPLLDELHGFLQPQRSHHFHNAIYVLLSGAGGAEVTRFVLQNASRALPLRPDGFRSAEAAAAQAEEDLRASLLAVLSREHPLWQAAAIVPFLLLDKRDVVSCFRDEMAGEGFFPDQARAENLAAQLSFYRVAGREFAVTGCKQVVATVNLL
UniProt O60704: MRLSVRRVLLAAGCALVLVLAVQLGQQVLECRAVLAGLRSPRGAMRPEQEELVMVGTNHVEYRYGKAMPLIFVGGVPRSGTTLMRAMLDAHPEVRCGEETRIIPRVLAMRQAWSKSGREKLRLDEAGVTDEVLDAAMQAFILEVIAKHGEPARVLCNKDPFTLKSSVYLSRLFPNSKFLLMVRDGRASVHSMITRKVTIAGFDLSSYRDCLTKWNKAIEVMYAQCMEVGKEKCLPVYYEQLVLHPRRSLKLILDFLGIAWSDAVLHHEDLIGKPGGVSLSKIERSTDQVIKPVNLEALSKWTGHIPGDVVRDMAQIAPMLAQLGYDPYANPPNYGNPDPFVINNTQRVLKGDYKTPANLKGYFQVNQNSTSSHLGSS
UniProt P62995: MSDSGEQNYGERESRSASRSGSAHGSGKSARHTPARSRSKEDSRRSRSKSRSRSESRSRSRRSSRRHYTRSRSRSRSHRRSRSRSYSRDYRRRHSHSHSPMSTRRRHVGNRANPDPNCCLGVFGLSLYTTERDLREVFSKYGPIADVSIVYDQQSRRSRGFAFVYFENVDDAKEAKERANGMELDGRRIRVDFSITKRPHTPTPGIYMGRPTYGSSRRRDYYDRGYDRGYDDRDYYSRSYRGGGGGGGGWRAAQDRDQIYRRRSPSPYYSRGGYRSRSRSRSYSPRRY
UniProt Q12931: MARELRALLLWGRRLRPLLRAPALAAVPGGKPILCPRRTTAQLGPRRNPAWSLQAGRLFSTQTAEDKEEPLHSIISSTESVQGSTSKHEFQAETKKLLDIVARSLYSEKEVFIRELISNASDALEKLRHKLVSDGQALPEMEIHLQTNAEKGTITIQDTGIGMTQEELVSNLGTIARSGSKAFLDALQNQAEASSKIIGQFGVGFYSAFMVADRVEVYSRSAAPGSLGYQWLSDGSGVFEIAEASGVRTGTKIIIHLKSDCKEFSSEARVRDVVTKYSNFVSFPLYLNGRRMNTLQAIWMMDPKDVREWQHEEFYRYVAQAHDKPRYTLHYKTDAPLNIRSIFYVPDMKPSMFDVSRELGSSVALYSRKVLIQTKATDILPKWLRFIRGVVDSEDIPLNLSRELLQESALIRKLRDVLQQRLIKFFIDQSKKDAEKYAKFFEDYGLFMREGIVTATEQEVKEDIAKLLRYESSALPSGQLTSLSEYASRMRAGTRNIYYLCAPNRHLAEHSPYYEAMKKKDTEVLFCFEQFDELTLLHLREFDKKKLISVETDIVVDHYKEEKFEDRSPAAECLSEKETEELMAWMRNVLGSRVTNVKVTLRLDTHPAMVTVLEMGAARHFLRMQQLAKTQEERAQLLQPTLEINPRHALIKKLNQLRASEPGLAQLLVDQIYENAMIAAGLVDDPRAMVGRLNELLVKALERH
UniProt Q9Y3Q8: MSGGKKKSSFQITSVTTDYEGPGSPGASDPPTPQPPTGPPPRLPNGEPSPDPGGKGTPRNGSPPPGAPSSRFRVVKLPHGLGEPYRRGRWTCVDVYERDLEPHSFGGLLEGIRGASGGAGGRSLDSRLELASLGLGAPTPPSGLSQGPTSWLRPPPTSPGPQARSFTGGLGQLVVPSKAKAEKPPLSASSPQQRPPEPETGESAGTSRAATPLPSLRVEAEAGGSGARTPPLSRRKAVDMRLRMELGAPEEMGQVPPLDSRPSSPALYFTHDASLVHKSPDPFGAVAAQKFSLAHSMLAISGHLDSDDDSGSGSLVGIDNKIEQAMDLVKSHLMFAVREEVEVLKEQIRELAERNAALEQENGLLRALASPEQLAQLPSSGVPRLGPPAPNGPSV
UniProt Q96F44: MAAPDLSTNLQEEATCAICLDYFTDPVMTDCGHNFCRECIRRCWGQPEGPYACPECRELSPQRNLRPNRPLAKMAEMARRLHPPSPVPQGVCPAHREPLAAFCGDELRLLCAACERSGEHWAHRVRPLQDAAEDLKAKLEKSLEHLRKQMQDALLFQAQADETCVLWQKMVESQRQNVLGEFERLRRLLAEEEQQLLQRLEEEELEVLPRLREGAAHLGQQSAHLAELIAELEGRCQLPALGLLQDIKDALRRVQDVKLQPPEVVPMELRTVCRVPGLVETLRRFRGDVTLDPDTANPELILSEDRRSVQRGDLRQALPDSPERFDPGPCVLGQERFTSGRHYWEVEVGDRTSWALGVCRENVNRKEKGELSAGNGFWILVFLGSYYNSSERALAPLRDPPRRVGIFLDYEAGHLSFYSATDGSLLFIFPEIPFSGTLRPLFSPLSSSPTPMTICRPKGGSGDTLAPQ
UniProt P13693: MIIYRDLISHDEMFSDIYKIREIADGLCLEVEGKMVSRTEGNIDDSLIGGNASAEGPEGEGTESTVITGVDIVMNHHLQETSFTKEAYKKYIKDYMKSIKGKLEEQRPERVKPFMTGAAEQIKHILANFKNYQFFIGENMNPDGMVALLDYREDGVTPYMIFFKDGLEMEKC
UniProt Q7Z4G4: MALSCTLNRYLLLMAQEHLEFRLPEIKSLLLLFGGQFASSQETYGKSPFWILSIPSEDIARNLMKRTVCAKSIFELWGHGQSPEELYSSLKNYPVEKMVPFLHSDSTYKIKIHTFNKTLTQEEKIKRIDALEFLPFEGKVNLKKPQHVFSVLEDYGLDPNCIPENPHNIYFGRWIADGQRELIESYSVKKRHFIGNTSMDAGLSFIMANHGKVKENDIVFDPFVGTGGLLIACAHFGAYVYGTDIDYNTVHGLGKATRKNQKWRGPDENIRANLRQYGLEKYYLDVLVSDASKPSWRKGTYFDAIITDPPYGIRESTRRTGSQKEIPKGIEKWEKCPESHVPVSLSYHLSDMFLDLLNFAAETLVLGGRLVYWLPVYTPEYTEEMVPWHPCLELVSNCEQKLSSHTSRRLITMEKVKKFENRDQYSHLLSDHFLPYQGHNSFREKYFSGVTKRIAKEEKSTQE
UniProt P60174, whole entry, looked up: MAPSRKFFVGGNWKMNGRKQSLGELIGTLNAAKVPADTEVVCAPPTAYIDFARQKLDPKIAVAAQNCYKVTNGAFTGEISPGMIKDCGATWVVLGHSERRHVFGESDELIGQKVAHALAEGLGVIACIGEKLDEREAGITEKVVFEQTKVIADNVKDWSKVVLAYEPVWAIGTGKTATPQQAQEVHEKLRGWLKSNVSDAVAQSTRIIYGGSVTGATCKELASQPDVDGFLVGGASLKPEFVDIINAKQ

Experiments:
Assay in all cases: log2 fold change, soluble protein after heating vs DMSO (PISA); higher = thermal stabilisation; K562 cells, 10 uM, 30 min; active = over 0.2 and 3.5 SD of the protein, either way, in both replicates (recomputed)
[1] = compound: CS(=O)(=O)c1ccc(-c2cnc(N)c(C(=O)Nc3ccccc3)n2)cc1
Procedure, shortened: (§1)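 K562 cells (2×10^6 cells/mL) were treated with 10 μM compound for 30 min, and aliquots were heated for 3 min over 48°C-58°C. Pooled aliquots were extracted in PBS with 0.5% NP-40 at 4°C, and the supernatant after 21,000xg for 90 min was measured by TMTpro 16plex LC-MS/MS with channel sums equalised. Reported thermal stability, relative to control samples and from duplicates, is a log2 fold change.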

crizotinib = compound: C[C@@H](Oc1cc(-c2cnn(C3CCNCC3)c2)cnc1N)c1c(Cl)ccc(F)c1Cl [crizotinib]
Procedure, shortened: as §1

[2] = compound: C[C@@H]1COCCN1C2=NC(=NC(=C2)C3(CC3)S(=O)(=O)C)C4=C5C=CNC5=CC=C4
Procedure, shortened: as §1

[3] = compound: C[C@H](C1=CC=C(C=C1)C(=O)NC2=C3C=CNC3=NC=C2)N
Procedure, shortened: as §1

duvelisib = compound: C[C@H](Nc1ncnc2nc[nH]c12)c1cc2cccc(Cl)c2c(=O)n1-c1ccccc1 [duvelisib]
Procedure, shortened: as §1

gandotinib = compound: Cc1cc(Nc2cc(CN3CCOCC3)c3nc(C)c(Cc4ccc(Cl)cc4F)n3n2)n[nH]1 [gandotinib]
Procedure, shortened: as §1

tozasertib = compound: Cc1cc(Nc2cc(N3CCN(C)CC3)nc(Sc3ccc(NC(=O)C4CC4)cc3)n2)n[nH]1 [tozasertib]
Procedure, shortened: as §1

[4] = compound: Cc1cc(SCc2sc(-c3ccc(C(F)(F)F)cc3)nc2C)ccc1OCC(=O)O
Procedure, shortened: as §1

doramapimod = compound: Cc1ccc(-n2nc(C(C)(C)C)cc2NC(=O)Nc2ccc(OCCN3CCOCC3)c3ccccc23)cc1 [doramapimod]
Procedure, shortened: as §1

ispinesib = compound: Cc1ccc(C(=O)N(CCCN)[C@@H](c2nc3cc(Cl)ccc3c(=O)n2Cc2ccccc2)C(C)C)cc1 [ispinesib]
Procedure, shortened: as §1

bafetinib = compound: Cc1ccc(NC(=O)c2ccc(CN3CC[C@H](N(C)C)C3)c(C(F)(F)F)c2)cc1Nc1nccc(-c2cncnc2)n1 [bafetinib]
Procedure, shortened: as §1

[5] = compound: Cc1cccc(CC(=O)N2CCc3c2ccc(-c2cn(C)c4ncnc(N)c24)c3F)n1
Procedure, shortened: as §1

nilotinib = compound: Cc1cn(-c2cc(NC(=O)c3ccc(C)c(Nc4nccc(-c5cccnc5)n4)c3)cc(C(F)(F)F)c2)cn1 [nilotinib]
Procedure, shortened: as §1

[6] = compound: Cc1nc(Nc2n[nH]c3c2CN(C(=O)N[C@H](CN(C)C)c2ccccc2)C3(C)C)c2sccc2n1
Procedure, shortened: as §1

dasatinib = compound: Cc1nc(Nc2ncc(C(=O)Nc3c(C)cccc3Cl)s2)cc(N2CCN(CCO)CC2)n1 [dasatinib]
Procedure, shortened: as §1

[7] = compound: Cc1ncc(-c2ccnc(Nc3ccc(S(C)(=O)=O)cc3)n2)n1C(C)C
Procedure, shortened: as §1

[8] = compound: Cn1cc(-c2ccc3c(c2)CCN3C(=O)Cc2cccc(C(F)(F)F)c2)c2c(N)ncnc21
Procedure, shortened: as §1

[9] = compound: Cn1cc(-c2ccc3nnc(C(F)(F)c4ccc5ncccc5c4)n3n2)cn1
Procedure, shortened: as §1

tipifarnib = compound: Cn1cncc1[C@@](N)(c1ccc(Cl)cc1)c1ccc2c(c1)c(-c1cccc(Cl)c1)cc(=O)n2C [tipifarnib]
Procedure, shortened: as §1

mubritinib = compound: FC(F)(F)c1ccc(/C=C/c2nc(COc3ccc(CCCCn4ccnn4)cc3)co2)cc1 [mubritinib]
Procedure, shortened: as §1

Measured: log2 fold change

TRAFD1 (UniProt O14545)
inactive: [1] -0.032 | crizotinib -0.022 | [2] -0.056 | [3] -0.087 | duvelisib 0.048 | gandotinib 0.077 | tozasertib 0.03 | [4] -0.051 | doramapimod -0.036 | ispinesib 0.012 | bafetinib -0.014 | [5] -0.038 | nilotinib 0.037 | [6] 0 | dasatinib 0.037 | [7] -0.007 | [8] 0.02 | [9] -0.01 | tipifarnib -0.027 | mubritinib -0.015

TOLLIP (UniProt Q9H0E2)
inactive: [1] 0.004 | crizotinib 0.109 | [2] 0.098 | [3] -0.027 | duvelisib 0.169 | gandotinib 0.048 | tozasertib 0.079 | [4] 0.037 | doramapimod -0.008 | ispinesib 0.038 | bafetinib -0.036 | [5] -0.013 | nilotinib 0.053 | [6] -0.047 | dasatinib -0.038 | [7] 0.105 | [8] 0.032 | [9] -0.061 | tipifarnib 0.042 | mubritinib -0.011

TPM1 (UniProt H7BYY1)
inactive: [1] -0.005 | crizotinib 0.051 | [2] 0.051 | [3] 0.025 | duvelisib 0.062 | gandotinib 0.005 | tozasertib -0.044 | [4] -0.052 | doramapimod -0.034 | ispinesib -0.02 | bafetinib -0.068 | [5] -0.081 | nilotinib -0.026 | [6] -0.011 | dasatinib 0.035 | [7] -0.019 | [8] -0.065 | [9] 0.071 | tipifarnib -0.003 | mubritinib 0.043

Two neighbouring records already listed, quoted:
TRAFD1 (UniProt O14545)
inactive: [1] -0.032 | crizotinib -0.022 | [2] -0.056 | [3] -0.087 | duvelisib 0.048 | gandotinib 0.077 | tozasertib 0.03 | [4] -0.051 | doramapimod -0.036 | ispinesib 0.012 | bafetinib -0.014 | [5] -0.038 | nilotinib 0.037 | [6] 0 | dasatinib 0.037 | [7] -0.007 | [8] 0.02 | [9] -0.01 | tipifarnib -0.027 | mubritinib -0.015

TOLLIP (UniProt Q9H0E2)
inactive: [1] 0.004 | crizotinib 0.109 | [2] 0.098 | [3] -0.027 | duvelisib 0.169 | gandotinib 0.048 | tozasertib 0.079 | [4] 0.037 | doramapimod -0.008 | ispinesib 0.038 | bafetinib -0.036 | [5] -0.013 | nilotinib 0.053 | [6] -0.047 | dasatinib -0.038 | [7] 0.105 | [8] 0.032 | [9] -0.061 | tipifarnib 0.042 | mubritinib -0.011

(listing goes on)

TP53RK (UniProt Q96S44)
inactive: [1] -0.019 | crizotinib 0.041 | [2] 0.022 | [3] -0.035 | duvelisib 0.036 | gandotinib -0.079 | tozasertib -0.029 | [4] -0.028 | doramapimod -0.007 | ispinesib 0.043 | bafetinib -0.014 | [5] 0.034 | nilotinib -0.018 | [6] 0.026 | dasatinib 0.063 | [7] -0.012 | [8] 0.023 | [9] 0.013 | tipifarnib -0.027 | mubritinib 0.016

TOMM40L (UniProt Q969M1)
inactive: [1] -0.063 | crizotinib 0.003 | [2] 0.072 | [3] -0.105 | duvelisib 0.046 | gandotinib -0.149 | tozasertib -0.031 | [4] -0.041 | doramapimod -0.003 | ispinesib -0.01 | bafetinib -0.057 | [5] 0.042 | nilotinib -0.008 | [6] 0.033 | dasatinib 0.039 | [7] -0.027 | [8] -0.028 | [9] 0.014 | tipifarnib 0.12 | mubritinib 0.049

TPM1 isoform 4 (UniProt P09493)
inactive: [1] -0.021 | crizotinib 0.017 | [2] 0.007 | [3] -0.029 | duvelisib 0.003 | gandotinib -0.037 | tozasertib -0.026 | [4] -0.057 | doramapimod 0.013 | ispinesib 0.014 | bafetinib -0.017 | [5] -0.016 | nilotinib 0.063 | [6] -0.022 | dasatinib 0.01 | [7] -0.005 | [8] 0.034 | [9] 0.004 | tipifarnib -0.008 | mubritinib 0.018

TOR4A (UniProt Q9NXH8)
inactive: [1] 0.018 | crizotinib 0.133 | [2] -0.109 | [3] 0.131 | duvelisib 0 | gandotinib 0.113 | tozasertib 0.037 | [4] -0.034 | doramapimod 0.03 | ispinesib -0.053 | bafetinib 0.077 | [5] 0.02 | nilotinib 0.011 | [6] 0.143 | dasatinib 0.02 | [7] -0.01 | [8] -0.119 | [9] -0.03 | tipifarnib 0 | mubritinib -0.062

TPST2 (UniProt O60704)
inactive: [1] 0.006 | crizotinib -0.223 | [2] 0.01 | [3] 0.049 | duvelisib -0.001 | gandotinib -0.001 | tozasertib 0.054 | [4] -0.008 | doramapimod 0.034 | ispinesib -0.017 | bafetinib 0.051 | [5] 0.026 | nilotinib -0.113 | [6] 0.189 | dasatinib 0.025 | [7] 0.001 | [8] 0.029 | [9] -0.061 | tipifarnib 0.015 | mubritinib 0.185

TRA2B (UniProt P62995)
inactive: [1] -0.29 | crizotinib 0.105 | [2] -0.366 | [3] 0.128 | duvelisib -0.151 | gandotinib 0.476 | tozasertib 0.005 | [4] -0.017 | doramapimod 0.131 | ispinesib -0.261 | bafetinib 0.167 | [5] -0.047 | nilotinib 0.152 | [6] -0.274 | dasatinib 0.197 | [7] 0.019 | [8] -0.395 | [9] -0.32 | tipifarnib 0.196 | mubritinib -0.103

TRAP1 (UniProt Q12931)
inactive: [1] -0.011 | crizotinib 0.048 | [2] -0.001 | [3] -0.084 | duvelisib 0.019 | gandotinib -0.019 | tozasertib 0.001 | [4] -0.003 | doramapimod -0.025 | ispinesib -0.034 | bafetinib -0.064 | [5] -0.002 | nilotinib -0.014 | [6] 0.001 | dasatinib 0 | [7] -0.011 | [8] 0.023 | [9] 0.028 | tipifarnib 0.014 | mubritinib 0.003

TSC22D4 (UniProt Q9Y3Q8)
inactive: [1] -0.018 | crizotinib 0.01 | [2] 0.013 | [3] 0.024 | duvelisib -0.002 | gandotinib 0.017 | tozasertib 0.018 | [4] 0.002 | doramapimod -0.053 | ispinesib 0.031 | bafetinib -0.08 | [5] -0.01 | nilotinib -0.061 | [6] -0.068 | dasatinib -0.046 | [7] -0.008 | [8] 0.035 | [9] -0.008 | tipifarnib 0.009 | mubritinib 0.024

TRIM11 (UniProt Q96F44)
inactive: [1] -0.018 | crizotinib 0.084 | [2] 0.042 | [3] -0.032 | duvelisib -0.051 | gandotinib -0.218 | tozasertib -0.016 | [4] 0.1 | doramapimod 0.035 | ispinesib 0.033 | bafetinib -0.027 | [5] -0.178 | nilotinib -0.077 | [6] -0.064 | dasatinib -0.139 | [7] -0.025 | [8] 0.032 | [9] -0.015 | tipifarnib 0.045 | mubritinib 0.148

TPT1 (UniProt P13693)
inactive: [1] 0.075 | crizotinib -0.096 | [2] 0.031 | [3] -0.033 | duvelisib -0.027 | gandotinib -0.055 | tozasertib -0.018 | [4] 0.027 | doramapimod -0.002 | ispinesib 0.091 | bafetinib 0.081 | [5] 0.058 | nilotinib 0.164 | [6] -0.008 | dasatinib -0.072 | [7] -0.036 | [8] 0.084 | [9] -0.026 | tipifarnib -0.084 | mubritinib 0.186

TRMT11 (UniProt Q7Z4G4)
inactive: [1] 0.047 | crizotinib 0.034 | [2] 0.086 | [3] -0.08 | duvelisib -0.017 | gandotinib 0.048 | tozasertib 0.004 | [4] -0.009 | doramapimod -0.1 | ispinesib 0.107 | bafetinib 0 | [5] -0.008 | nilotinib 0.007 | [6] -0.037 | dasatinib -0.041 | [7] 0.032 | [8] 0.069 | [9] -0.006 | tipifarnib 0.01 | mubritinib 0.069

TPI1 (UniProt P60174)
inactive: [1] 0.014 | crizotinib 0.036 | [2] 0.023 | [3] -0.018 | duvelisib 0.016 | gandotinib -0.015 | tozasertib -0.013 | [4] -0.03 | doramapimod -0.065 | ispinesib 0.013 | bafetinib -0.038 | [5] -0.041 | nilotinib -0.021 | [6] 0.003 | dasatinib 0.042 | [7] -0.01 | [8] 0.029 | [9] 0.015 | tipifarnib -0.028 | mubritinib 0.023
